Reference: PubChem BioAssay AID1224828 (NIAID, 2016)
Aim: 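Knock-downs that increase or decrease LPS-induced p65 nuclear translocation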 (primary screen). Cell system: mouse RAW264.7 G9 macrophage reporter cells (GFP-p65, Tnf promoter-mCherry). Reagents: siRNA pool against mouse genes, 100 nM. Duration: 2 days siRNA transfection, then 40 min LPS before fixation. Treatment: LPS (Salmonella minnesota R595) at 10 ng/ml. Measurement: 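Microscopy ratio of nuclear to perinuclear-ring GFP-p65 signal, scaled to the plate median; gene score is the average of two replicate robust z-scores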. Direction: p65 translocation robust z-score: higher = more nuclear NF-kappaB p65 after LPS than the plate median; nuclear/cytoplasmic p65 ratio: higher = more nuclear NF-kappaB p65. Call rule: 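Called active when z exceeds 3.3 or falls under -1.56 (median of Tlr4 controls), giving activity score of at least 50; no calls for control wells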. Meaning of the calls: active = hit (p65 shift raised or lowered); inactive = no clear change.
The deposit covers about 17,000 reagents; this is a part drawn at random. In the full data, 762 (4.5%) got an active call. 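Active calls include both raised and lowered p65 entry, mostly lowered; wells with fewer than 50 cells lack a z-score.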 Raw values vary from plate to plate and are shown uncorrected. The numbers tell different reagents against one gene apart. No sequences are given here.

target,pool no.,p65 translocation robust z-score,"nuclear/cytoplasmic p65 ratio, rep 1","nuclear/cytoplasmic p65 ratio, rep 2",low cell count flag,Call
Pipox,1,-0.4,1.32,1.18,enough cells to score,inactive
Dapk3,1,-0.29,1.92,1.35,enough cells to score,inactive
Ifih1,1,-0.26,1.44,1.46,enough cells to score,inactive
Rbm15b,1,,1.27,1.29,fewer than 50 cells per well; well left out of scoring,inactive
Prl2c4,1,-0.27,1.72,1.57,enough cells to score,inactive
Igbp1b,1,2.36,1.91,1.72,enough cells to score,inactive
Rpl35a,1,,1.54,1.22,fewer than 50 cells per well; well left out of scoring,inactive
Mtmr6,1,1.32,1.59,1.54,enough cells to score,inactive
Mcm5,1,1.14,1.59,1.49,enough cells to score,inactive
Nxnl1,1,-2.23,1.13,1.17,enough cells to score,active
Mcm6,1,1.59,1.65,1.55,enough cells to score,inactive
Atf3,1,-1.72,1.36,1.36,enough cells to score,active
Hmcn2,1,-0.47,1.42,1.86,enough cells to score,inactive
Itpka,1,-1.42,1.43,1.2,enough cells to score,inactive
2310057J18Rik,1,-1.31,1.29,1.15,enough cells to score,inactive
Rcan2,1,,1.3,1.2,fewer than 50 cells per well; well left out of scoring,inactive
Pon3,1,0.4,1.55,1.46,enough cells to score,inactive
Or10a3,1,,1.57,1.18,fewer than 50 cells per well; well left out of scoring,inactive
Or4c103,1,1.2,1.89,1.71,enough cells to score,inactive
Med18,1,0.46,1.49,1.5,enough cells to score,inactive
Kcnq3,1,1.13,1.57,1.58,enough cells to score,inactive
Cyb5a,1,-0.79,1.38,1.27,enough cells to score,inactive
Nanos3,1,-0.38,1.73,1.53,enough cells to score,inactive
Plcl2,1,,1.55,1.29,fewer than 50 cells per well; well left out of scoring,inactive
Slc4a10,1,,1.42,1.45,fewer than 50 cells per well; well left out of scoring,inactive
Vmn1r71,1,0.15,1.41,1.18,enough cells to score,inactive
Arhgap12,1,0.96,1.59,1.8,enough cells to score,inactive
Hsh2d,1,,1.58,1.46,fewer than 50 cells per well; well left out of scoring,inactive
Coq6,1,0.35,1.62,1.85,enough cells to score,inactive
P2rx3,1,0.16,1.46,1.44,enough cells to score,inactive
Kif3b,1,-0.86,1.36,1.27,enough cells to score,inactive
Cdca3,1,-0.52,1.56,1.65,enough cells to score,inactive
Afap1,1,0.42,1.46,1.38,enough cells to score,inactive
Rhoa,1,1.48,1.77,1.68,enough cells to score,inactive
Nckap1,1,0.13,1.36,1.36,enough cells to score,inactive
Slc30a5,1,,2.83,1.26,fewer than 50 cells per well; well left out of scoring,inactive
Wnt2,1,-0.47,1.52,1.47,enough cells to score,inactive
Sike1,1,,1.48,1.45,fewer than 50 cells per well; well left out of scoring,inactive
Sike1,2,,1.32,1.08,fewer than 50 cells per well; well left out of scoring,inactive
Ubqln2,1,-0.16,1.39,1.21,enough cells to score,inactive
Slc8a2,1,,1.7,1.22,fewer than 50 cells per well; well left out of scoring,inactive
Sspn,1,-0.37,1.52,1.48,enough cells to score,inactive
Krt25,1,0.34,1.32,1.24,enough cells to score,inactive
Or52e19b,1,,1.07,1.42,fewer than 50 cells per well; well left out of scoring,inactive
Crlf3,1,-1.02,1.32,1.26,enough cells to score,inactive
Pcdhb4,1,0.63,1.53,1.31,enough cells to score,inactive
Brca1,1,-0.73,1.68,1.49,enough cells to score,inactive
Tceanc2,1,,1.36,1.25,fewer than 50 cells per well; well left out of scoring,inactive
Tceanc2,2,,1.2,1.31,fewer than 50 cells per well; well left out of scoring,inactive
Bdnf,1,0.06,1.59,1.66,enough cells to score,inactive

In a second layout: results already given
| target | pool no. | p65 translocation robust z-score | nuclear/cytoplasmic p65 ratio, rep 1 | nuclear/cytoplasmic p65 ratio, rep 2 | low cell count flag | Call |
| --- | --- | --- | --- | --- | --- | --- |
| Mcm6 | 1 | 1.59 | 1.65 | 1.55 | enough cells to score | inactive |
| Atf3 | 1 | -1.72 | 1.36 | 1.36 | enough cells to score | active |
| Hmcn2 | 1 | -0.47 | 1.42 | 1.86 | enough cells to score | inactive |
| Itpka | 1 | -1.42 | 1.43 | 1.2 | enough cells to score | inactive |
| 2310057J18Rik | 1 | -1.31 | 1.29 | 1.15 | enough cells to score | inactive |
| Rcan2 | 1 | – | 1.3 | 1.2 | fewer than 50 cells per well; well left out of scoring | inactive |
| Pon3 | 1 | 0.4 | 1.55 | 1.46 | enough cells to score | inactive |
| Or10a3 | 1 | – | 1.57 | 1.18 | fewer than 50 cells per well; well left out of scoring | inactive |

Next results:
target,pool no.,p65 translocation robust z-score,"nuclear/cytoplasmic p65 ratio, rep 1","nuclear/cytoplasmic p65 ratio, rep 2",low cell count flag,Call
Reg4,1,-0.2,1.54,1.2,enough cells to score,inactive
Klra8,1,-0.65,1.37,1.31,enough cells to score,inactive
Fam3c,1,1.34,1.74,1.77,enough cells to score,inactive
Atpaf2,1,0.24,1.56,1.62,enough cells to score,inactive
Rsph3a,1,,1.1,1.2,fewer than 50 cells per well; well left out of scoring,inactive
Scgn,1,0.88,1.59,1.27,enough cells to score,inactive
Sorbs2,1,0.93,1.53,1.7,enough cells to score,inactive
Cmtm8,1,0.85,1.63,2.02,enough cells to score,inactive
Dnm1,1,-2.44,1.23,1.06,enough cells to score,active
Scube2,1,0.25,1.5,1.68,enough cells to score,inactive
Sgcd,1,-0.68,1.52,1.39,enough cells to score,inactive
Tbl3,1,2.25,1.83,1.73,enough cells to score,inactive
5730596B20Rik,1,-2,1.17,1.2,enough cells to score,active
Pnrc2,1,-0.62,1.42,1.32,enough cells to score,inactive
Or1j4,1,-1.92,1.31,1.18,enough cells to score,active
Or5b97,1,0.42,1.76,1.4,enough cells to score,inactive
Sh3glb1,1,0.49,1.56,1.23,enough cells to score,inactive
Ncoa2,1,-0.03,1.46,1.34,enough cells to score,inactive
Zdhhc9,1,-1.89,1.13,1.06,enough cells to score,active
Or1e23,1,1.7,1.86,1.62,enough cells to score,inactive
Srsf12,1,2.6,1.58,1.52,enough cells to score,inactive
Ubr5,1,0.26,1.67,1.63,enough cells to score,inactive
Klk1b8,1,-1.94,1.22,1.22,enough cells to score,active
Snrpb2,1,-1.02,1.31,1.12,enough cells to score,inactive
Palmd,1,-0.61,1.39,1.15,enough cells to score,inactive
